Experimental data as given in patent US20110218218A1, “Formulations Of Indanylamines And The Use Thereof As Local Anesthetics And As Medication For Chronic Pain” (BRIDGE PHARMA, INC., priority 2005, published 2011).

Amino acid sequences for entries named in this document (tags omitted).
UniProt Q14524, whole entry: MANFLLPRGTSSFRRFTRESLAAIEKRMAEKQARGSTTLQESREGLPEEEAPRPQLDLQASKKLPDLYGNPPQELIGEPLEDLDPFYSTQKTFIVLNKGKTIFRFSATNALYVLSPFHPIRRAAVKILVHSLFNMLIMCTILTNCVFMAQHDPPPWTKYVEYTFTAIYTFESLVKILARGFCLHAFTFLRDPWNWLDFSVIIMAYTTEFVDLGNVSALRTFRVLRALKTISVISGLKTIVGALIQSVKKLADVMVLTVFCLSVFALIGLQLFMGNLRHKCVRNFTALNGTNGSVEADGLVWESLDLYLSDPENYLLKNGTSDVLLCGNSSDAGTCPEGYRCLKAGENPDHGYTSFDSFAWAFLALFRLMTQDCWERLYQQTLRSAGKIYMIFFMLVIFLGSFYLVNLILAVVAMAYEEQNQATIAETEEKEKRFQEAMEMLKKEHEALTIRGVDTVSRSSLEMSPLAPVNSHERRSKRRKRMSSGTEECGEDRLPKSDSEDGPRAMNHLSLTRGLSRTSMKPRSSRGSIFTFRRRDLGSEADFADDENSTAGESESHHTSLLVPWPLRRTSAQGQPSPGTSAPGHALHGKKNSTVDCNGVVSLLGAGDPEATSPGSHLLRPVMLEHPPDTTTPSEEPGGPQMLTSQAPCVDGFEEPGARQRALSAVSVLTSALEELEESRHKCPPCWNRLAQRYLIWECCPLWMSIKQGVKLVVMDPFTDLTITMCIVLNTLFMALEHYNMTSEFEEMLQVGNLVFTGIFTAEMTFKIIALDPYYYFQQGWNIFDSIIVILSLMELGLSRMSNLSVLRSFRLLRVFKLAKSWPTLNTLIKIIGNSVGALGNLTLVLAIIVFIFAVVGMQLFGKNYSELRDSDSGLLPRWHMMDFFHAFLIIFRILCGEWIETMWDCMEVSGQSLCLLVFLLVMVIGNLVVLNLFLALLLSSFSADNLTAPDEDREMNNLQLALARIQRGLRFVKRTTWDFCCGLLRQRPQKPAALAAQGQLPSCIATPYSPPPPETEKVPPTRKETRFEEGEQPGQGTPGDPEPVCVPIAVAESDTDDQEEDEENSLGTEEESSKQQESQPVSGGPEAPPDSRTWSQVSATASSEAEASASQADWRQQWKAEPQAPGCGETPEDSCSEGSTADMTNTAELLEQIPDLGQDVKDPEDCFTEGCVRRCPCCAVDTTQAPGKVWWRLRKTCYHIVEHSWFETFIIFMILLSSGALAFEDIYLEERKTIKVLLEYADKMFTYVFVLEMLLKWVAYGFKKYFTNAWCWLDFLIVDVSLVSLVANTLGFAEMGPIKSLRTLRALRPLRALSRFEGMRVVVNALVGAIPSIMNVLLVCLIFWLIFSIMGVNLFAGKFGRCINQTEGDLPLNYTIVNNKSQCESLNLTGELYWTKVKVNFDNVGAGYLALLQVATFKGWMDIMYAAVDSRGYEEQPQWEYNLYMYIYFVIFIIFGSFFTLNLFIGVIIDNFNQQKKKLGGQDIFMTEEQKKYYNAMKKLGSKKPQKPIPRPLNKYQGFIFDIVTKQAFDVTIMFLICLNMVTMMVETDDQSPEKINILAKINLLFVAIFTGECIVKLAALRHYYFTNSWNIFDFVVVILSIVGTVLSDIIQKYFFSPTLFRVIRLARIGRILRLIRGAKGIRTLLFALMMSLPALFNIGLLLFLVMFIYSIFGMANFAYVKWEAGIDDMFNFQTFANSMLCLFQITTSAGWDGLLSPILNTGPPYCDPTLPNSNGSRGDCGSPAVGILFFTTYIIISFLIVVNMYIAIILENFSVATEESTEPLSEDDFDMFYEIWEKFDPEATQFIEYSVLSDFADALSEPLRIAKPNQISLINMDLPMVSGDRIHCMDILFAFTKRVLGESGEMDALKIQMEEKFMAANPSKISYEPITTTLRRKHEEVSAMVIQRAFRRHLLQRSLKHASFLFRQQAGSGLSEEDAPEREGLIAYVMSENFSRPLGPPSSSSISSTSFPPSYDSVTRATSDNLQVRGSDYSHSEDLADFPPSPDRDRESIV

Key:
[1] = molecular target: T1, NaV1.5 sodium channel (Homo sapiens, UniProt Q14524); test: NaV1.5 electrophysiology (patch clamp) in HEK-293 cells; type: cell-based; settings: read-out: inhibition of NaV1.5 channels
T1 construct: expressed in transfected cells; host or cells: HEK-293
Experimental: The inhibitory effects of LAC-34 on batrachotoxin-sensitive Na^+ channel binding sites were tested using binding assays. The inhibitory effects of LAC-34 on human NaV1.3 and NaV1.5 channels were tested using electrophysiological methodology on stably expressed in mammalian cells (HEK-293). Inhibition of NaV1.8 channels were tested using electro-physiological methodology on dorsal root ganglia (DRG neurons)
Electrophysiological methodology was used and mammalian (HEK-293) cells, stably expressing NaV1.3 channels and superfused with vehicle control solution. The intracellular pipette contained solutions with the test article (LAC-34 or lidocaine.) A commercial patch clamp amplifier was used.
The same methodology as previously used for tests on NaV1.3 channels was also used for NaV1.5 channels.

[2] = molecular target: batrachotoxin-sensitive Na+ channel (site 2); test: [3H]batrachotoxin binding to Na+ channels (site 2); settings: rat cerebral cortex, 10 nM ligand, 60 min/22° C.; read-out: IC50, inhibition of [3H]batrachotoxin specific binding

With `CCN(CC)CC(=O)Nc1c(C)cccc1C` [Lidocaine, reference compound] the inhibition at 2 mM [1] was 90% and the IC50 [2] was 52.5 µM.
